Assay results published in PMC4897654.
No constants are given. Whether binding was seen depends on the method and setting. Some binding calls cover weakened binding; strength is not graded here.

Chains of the proteins cited; added tags and fusions are not shown. Lines headed by an entry give the natural chain unless they say otherwise; changes in a name come on top.
UniProt Q9BQ15: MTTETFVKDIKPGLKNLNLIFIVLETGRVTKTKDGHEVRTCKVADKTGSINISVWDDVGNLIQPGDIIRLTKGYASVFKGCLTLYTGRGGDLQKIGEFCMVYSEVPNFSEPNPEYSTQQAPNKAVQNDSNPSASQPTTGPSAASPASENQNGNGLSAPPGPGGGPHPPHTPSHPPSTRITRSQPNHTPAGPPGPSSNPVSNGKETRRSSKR
UniProt O15527: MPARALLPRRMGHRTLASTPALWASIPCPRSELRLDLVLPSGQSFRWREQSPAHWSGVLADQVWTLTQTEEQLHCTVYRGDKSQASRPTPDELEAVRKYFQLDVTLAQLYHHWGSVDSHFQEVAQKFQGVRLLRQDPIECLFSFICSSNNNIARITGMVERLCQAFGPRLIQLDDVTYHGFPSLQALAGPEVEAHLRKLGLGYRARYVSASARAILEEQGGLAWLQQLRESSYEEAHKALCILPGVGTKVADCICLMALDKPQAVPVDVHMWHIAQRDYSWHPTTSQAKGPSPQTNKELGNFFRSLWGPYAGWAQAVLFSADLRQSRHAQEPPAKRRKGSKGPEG

Target: recombinant C41S hSSB1 (human) (UniProt Q9BQ15)
Assay: pull-down; mutated hSSB1 immobilized on cyanogen bromide-activated Sepharose 4B; purified recombinant proteins; both purified

binding: binds
Substance: GST-OGG1 (human 8-oxoguanine glycosylase 1) (from UniProt O15527 1-345) (enzyme)
